Hit rate of the full screen: of about 340,000 compounds, about 170 (0.05%) were called active. This list was built around the results that the source calls inconclusive (neither active nor inactive); the mix of calls is not that of the screen. Calls come from the whole dose curve; as a rule, active = well fitted inhibition curve with a large enough effect in the signal ratio, with a control signal flat (not every such curve was filed as active); inconclusive = small, poorly fitted or top-dose-only effect, or effect the other way, or a change in a side signal; inactive = flat fitted curve, though single readings scatter; the % refers to the signal ratio. A potency beside an inconclusive call is a rough fit, not a confirmed value.
Assay: qHTS Assay to Find Inhibitors of Chronic Active B-Cell Receptor Signaling;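 for activity change, negative = inhibition: plate controls were basal doxycycline-induced cells for no effect and cells given 10 µM MG132 for full effect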
Conditions: ABC-DLBCL IkBa-CBG/CBR reporter, luminescence ratio (green luciferase fused to IkBa over red control in TMD8 lymphoma cells), 4 h; activity change, negative = inhibition: at 46.1 µM (top of the series)
Method in brief: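 TMD8 human ABC-DLBCL cells with doxycycline-inducible IκBα–green luciferase fusion and unfused red luciferase, in 0.5% FBS medium; compounds up to 46 uM, 4 h at 37C. Green/red luminescence ratio, filter-overlap corrected, fitted to concentration-response curves.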
Potency is the fitted concentration of half-maximal effect.

Row | SMILES | activity change, negative = inhibition | Potency
1 | CCC(C)NS(=O)(=O)c1ccc(NC(=O)C(Sc2ccccc2)c2ccccc2)cc1 (stereo not given) | inconclusive: 14.5% | –
2 | Cc1[nH][nH]c(=O)c1N=Nc1ccc(Cl)cc1 | inconclusive: -1.5% | –
3 | Nc1c(C(=O)CSc2nnc(Cc3ccccc3)o2)c(=O)[nH]c(=O)n1C1CC1 | inconclusive: 4.27% | –
4 | Cn1c(SCC(=O)Nc2nccs2)nnc1-c1ccncc1 | inconclusive: 6.42% | –
5 | COc1ccc(-n2c(Cc3cccs3)nnc2SCC(=O)Nc2ccc3c(c2)OCCO3)cc1 | inconclusive: -8.03% | –
6 | CCn1cc(C(=O)NC2CCCc3c2cnn3-c2cccc(C)c2C)cn1 (stereo not given) | inconclusive: -18.1% | –
7 | Cc1ccc2[nH]c(=O)c(CN(Cc3ccccc3)Cc3nnnn3C3CCCC3)cc2c1 | – | inconclusive: 6.51 µM [falling, single point]
8 | Nc1ncnc2c1ncn2[C@H]1C[C@H](O)[C@@H](CO)O1 | inconclusive: 8.72% | –
9 | Oc1c(C(c2ccccc2F)N2CCN(Cc3ccccc3)CC2)sc2nc(-c3ccco3)nn12 (stereo not given) | – | inconclusive: 0.501 µM [falling, partial curve, poor fit]
10 | CCCCN(c1ccccc1)c1ncnc2nc[nH]c12 | – | inconclusive: 25.9 µM [falling, single point]
11 | CCOc1cc(/C=N/NC(N)=S)cc(Br)c1OCc1ccccc1C | – | inconclusive: 5.17 µM [falling, full curve]
12 | CC1=NN(c2ccccc2)C(=O)/C1=C\c1cc(C)n(-c2ccccc2)c1C | inactive: -2.46% | –
13 | CCOC(=O)c1cnn(-c2nc(-c3ccc(C)cc3)cs2)c1C(F)(F)F | inactive: -0.569% | –
14 | CN(C)c1ccc(C#Cc2ccc3cc(CCO)oc(=O)c3c2)cc1 | inconclusive: -9.72% | –
15 | COc1ccc(CCN2C(=O)C3C4CC(C5C(C(=O)NN)=NOC45)C3C2=O)cc1OC (stereo not given) | inconclusive: -6.07% | –
16 | COc1cc(C(=O)Nc2ccc(C(N)=O)cc2)c([N+](=O)[O-])cc1OC | inconclusive: -21.8% | –
17 | CCc1nc(N2CCN(C(=O)c3ccccc3)CC2)c2c3c(sc2n1)CCCC3 | inconclusive: 5.91% | –
18 | Cc1cc(C)n(/N=C\c2c(O)ccc3ccccc23)c(=O)c1C(N)=O | inconclusive: -27.5% | –
19 | N#Cc1c(-c2ccccc2)cc(C2CC2)nc1SCC(=O)O | – | inconclusive: 18.4 µM [rising, single point]
20 | CCCn1c(O)c(N=Nc2ccc3ccccc3n2)c2ccccc21 | – | inconclusive: 0.231 µM [rising, partial curve, poor fit]
21 | CCOC(=O)c1ccc(NS(=O)(=O)CC)cc1 | inconclusive: 4.5% | –
22 | Cc1cc(-c2ccco2)n(-c2ccccc2)n1 | inactive: -0.284% | –
23 | CS(=O)(=O)c1ccc(N2CCN(c3ccccn3)CC2)c([N+](=O)[O-])c1 | inactive: -0.343% | –
24 | CCc1ccccc1NC(=O)C1CCCN(S(=O)(=O)c2ccc3c(c2)CC(C)N3C(C)=O)C1 (stereo not given) | inactive: 13.1% | –
25 | N#Cc1cccc(NC(=O)CSc2sc3c(O)cc(=O)[nH]c3c2C#N)c1 | – | inconclusive: 12.6 µM [rising, partial curve, poor fit]
26 | Cc1ccc([N+](=O)[O-])c(OCCN2CCNCC2)c1 | inconclusive: -19.2% | –
27 | COc1ccc(CN2C(=O)C(CC(C)C)Nc3ncnc(N4CCOCC4)c32)cc1 (stereo not given) | inactive: -7.19% | –

Row | SMILES | activity change, negative = inhibition | Potency
28 | O=C(Nc1ccccc1)Nc1cccc(-c2cn3cccnc3n2)c1 | inconclusive: 10.4% | –
29 | CC(C)c1ccc(/C=N/NC(=O)C2CCCC2)cc1 | – | inconclusive: 20 µM [falling, partial curve, poor fit]
30 | O=C(NCCc1cn2ccccc2n1)c1ccccc1F | – | inconclusive: 31.6 µM [falling, single point]
31 | COc1cc(CNCc2c[nH]c3ccccc23)cc(OC)c1 | inconclusive: -11.7% | –
32 | CCC1CO/C(=C(\C(Cl)=C(Cl)Cl)[N+](=O)[O-])N1 (stereo not given) | inactive: 3% | –
33 | COc1cc(CCC(C)=O)ccc1OC(=O)c1c(F)cccc1Cl | inconclusive: 4.46% | –
34 | O=C(N/N=C/c1cccc([N+](=O)[O-])c1)c1cc(-c2ccc3c(c2)OCO3)n[nH]1 | inactive: -0.492% | –
35 | CCOc1ccc(CN(C)C(=O)c2cccc(S(=O)(=O)N3CCCC3)c2)cc1OC | inconclusive: 2.74% | –
36 | O=C(NCCS(=O)(=O)N1CCN(c2ccccc2)CC1)c1cccc(F)c1 | – | inconclusive: 18.4 µM [falling, partial curve]
37 | Cc1ccc2nc(SCC(=O)Nc3ccc(F)cc3F)nc(=O)n2c1 | – | inconclusive: 18.4 µM [falling, partial curve]
38 | CC(=O)Nc1ccccc1NC(=O)C/C(C)=N/NC(=O)C(=O)N1CCCCC1 | inconclusive: -11.7% | –
39 | O=C1c2cccc(OCC(=O)N3CCCc4ccccc43)c2CCN1Cc1ccccc1 | – | inconclusive: 23.1 µM [falling, single point]
40 | CC(=O)Nc1c(O)nc(SCC(=O)Nc2nnc(SCc3ccccc3)s2)[nH]c1=O | – | inconclusive: 35.5 µM [falling, single point]
41 | COc1ccccc1CC(=O)Nc1ccon1 | inconclusive: 2.72% | –
42 | NC(=O)c1oc2ccccc2c1NC(=O)CS(=O)(=O)c1ccccc1 | inconclusive: 9.21% | –
43 | COCc1cc(N2CCOCC2)nc(SCc2ccc(Cl)cc2)n1 | – | inconclusive: 1.26 µM [falling, full curve]
44 | CC1CCN(S(=O)(=O)c2cccc(C(=O)N3CCN(c4ccc(F)cc4)CC3)c2)CC1 | inconclusive: -10.2% | –
45 | Cc1nc(C)c(C(=O)NNS(=O)(=O)c2ccc3ccccc3c2)s1 | inactive: -0.933% | –
46 | O=C(NCCCn1ccnc1)C(F)(F)C(F)(F)C(=O)NCCCn1ccnc1 | inconclusive: 8.5% | –
47 | CC(=O)Nc1ccc(-c2nc3c(C)cccc3[nH]2)cc1 | – | inconclusive: 16.4 µM [falling, partial curve]
48 | COc1c(O)cc(O)c2c(=O)cc(-c3ccccc3)oc12 | inconclusive: 5% | –
49 | CCn1c2ccccc2c2cc(/C=N/NC(=O)c3cccc(C)c3)ccc21 | inconclusive: -6.54% | –
50 | Cc1ccc(CNC(=O)c2ccc3c(=O)n(CCCN4CCCC4=O)c(=S)[nH]c3c2)cc1 | inconclusive: 6.42% | –
51 | COc1ccc2cc3c(N)nn(C(=O)c4ccccc4[N+](=O)[O-])c3nc2c1 | – | inconclusive: 10.3 µM [falling, partial curve]
52 | O=C(O)c1ccc2c(c1)OCCO2 | inconclusive: -0.543% | –
53 | Cc1nnc(SCCN2CCOCC2)n1-c1cccc(Cl)c1 | inconclusive: -2.23% | –
54 | CCOC(=O)c1sc2ncn(CC(=O)Nc3cc(C)on3)c(=O)c2c1C | inactive: 0.762% | –

Row | SMILES | activity change, negative = inhibition | Potency
55 | N#C/C(=C\c1cccnc1)C(=O)Nc1cccc(Cl)c1 | inconclusive: -21.1% | –
56 | COc1ccccc1CNS(=O)(=O)CC12CCC(CC1=O)C2(C)C (stereo not given) | – | inconclusive: 35.5 µM [rising, single point]
57 | Cc1cccc(NC(=O)N2C3CCCC2CC(NC(=O)C(C)(C)C)C3)c1 (stereo not given) | inconclusive: 3.68% | –
58 | S=c1[nH]c2ccc(Cl)cc2s1 | – | inconclusive: 35.5 µM [falling, single point]
59 | Cc1cc(C)c(C(=O)N2CCCC(N3CCN(c4cccc(C(F)(F)F)c4)CC3)C2)o1 (stereo not given) | inconclusive: -0.638% | –
60 | CCOC(=O)C1=C(COc2ccccc2)NC(=O)NC1c1cccc([N+](=O)[O-])c1 (stereo not given) | – | inconclusive: 35.5 µM [falling, single point]
61 | C=CCn1c(-c2ccc(Cl)cc2)cnc1SC(C)C(=O)NC(N)=O (stereo not given) | – | inconclusive: 35.5 µM [falling, partial curve]
62 | Cc1ccnc(NC(=O)CSc2ccccn2)c1 | inconclusive: -15.7% | –
63 | CCOc1ccccc1Nc1cc(C)nc2nc(C)nn12 | inconclusive: -2.7% | –
64 | CN1CCC(N(C)CC(O)c2ccccc2)CC1 (stereo not given) | inconclusive: -11.6% | –
65 | Nc1ncnc2c1ncn2[C@@H]1O[C@H](CNC(=O)[C@@H](N)Cc2ccc(C(F)(F)F)cc2)[C@@H](O)[C@H]1O | inconclusive: -1.85% | –
66 | Cc1nn(C)c(Cl)c1CN1CCN(C2CCCC2)C(CCO)C1 (stereo not given) | inconclusive: -20.3% | –
67 | CC1CC(C)CN(C(=O)C2CCN(S(=O)(=O)N3CCC4(CC3)OCCO4)CC2)C1 (stereo not given) | inactive: 5.43% | –
68 | Cc1cccc(C2=NC(C(F)(F)F)(C(F)(F)F)c3c(n(-c4ccc(F)cc4)c(=O)[nH]c3=O)N2)c1 | inconclusive: 0.888% | –
69 | COc1ccc(NC(=O)N2CCOCC2)cc1OC | inactive: -20.8% | –
70 | Cc1ccc(CN2CCCN(C)CC2)c(C)c1 | inactive: 3.7% | –
71 | Cc1ccccc1OCCNC(=O)CSc1ccc(C(F)(F)F)cc1[N+](=O)[O-] | inconclusive: -11.2% | –
72 | Cc1cc(NC(=O)COC(=O)C(Nc2ccc(C(F)(F)F)cc2Cl)C(C)C)no1 (stereo not given) | – | inconclusive: 20.6 µM [falling, single point]
73 | Cc1ccc(-n2ncc3c(NCCC4=CCCCC4)ncnc32)cc1 | inactive: 19% | –
74 | CCOc1ccc2[nH]cc(S(=O)(=O)c3ccc(F)cc3)c(=O)c2c1 | inconclusive: 24.8% | –
75 | CC(=O)Oc1c(C)c2c3c(c1OC(C)=O)[C@@H](C)CC[C@@H]3[C@@H](C)C[C@H]2C=C(C)C | – | inconclusive: 23.1 µM [activator, partial curve, poor fit]
76 | CC(=O)Oc1ccc2c(c1)cc(C)n2C | inconclusive: -10.4% | –
77 | OCC[C@H]1C[C@H](O)[C@@H](O)[C@@]2(Cc3ccccc3O2)O1 | inactive: -10.1% | –
78 | Cc1nn(C)cc1S(=O)(=O)Nc1ccc(C(F)(F)F)cc1 | inactive: -1.07% | –
79 | O=C1c2ccccc2C(=O)N1CCOCCN1C(=O)c2ccccc2C1=O | inconclusive: -5.16% | –
80 | CCOc1ccc(S(=O)(=O)NCCC(=O)NCc2ccc(OC)c(OC)c2)cc1 | inconclusive: -9.42% | –

Copied from the list:
Entry for COc1ccc(CN2C(=O)C(CC(C)C)Nc3ncnc(N4CCOCC4)c32)cc1 (stereo not given) under activity change, negative = inhibition: inactive: -7.19%
Entry for CCOC(=O)C1=C(COc2ccccc2)NC(=O)NC1c1cccc([N+](=O)[O-])c1 (stereo not given) under Potency: inconclusive: 35.5 µM [falling, single point]
Entry for O=C(O)c1ccc2c(c1)OCCO2 under activity change, negative = inhibition: inconclusive: -0.543%
Entry for NC(=O)c1oc2ccccc2c1NC(=O)CS(=O)(=O)c1ccccc1 under activity change, negative = inhibition: inconclusive: 9.21%
Entry for COc1ccc2cc3c(N)nn(C(=O)c4ccccc4[N+](=O)[O-])c3nc2c1 under Potency: inconclusive: 10.3 µM [falling, partial curve]

— PubChem BioAssay AID493014 (National Center for Advancing Translational Sciences (NCATS), 2011)
